This passage reports binding results from paper PMC7286909.

Sequences of proteins named here, by UniProt entry; tags and fusion partners are left off. Residues count along the entry.
UniProt P11021, residues 19-654: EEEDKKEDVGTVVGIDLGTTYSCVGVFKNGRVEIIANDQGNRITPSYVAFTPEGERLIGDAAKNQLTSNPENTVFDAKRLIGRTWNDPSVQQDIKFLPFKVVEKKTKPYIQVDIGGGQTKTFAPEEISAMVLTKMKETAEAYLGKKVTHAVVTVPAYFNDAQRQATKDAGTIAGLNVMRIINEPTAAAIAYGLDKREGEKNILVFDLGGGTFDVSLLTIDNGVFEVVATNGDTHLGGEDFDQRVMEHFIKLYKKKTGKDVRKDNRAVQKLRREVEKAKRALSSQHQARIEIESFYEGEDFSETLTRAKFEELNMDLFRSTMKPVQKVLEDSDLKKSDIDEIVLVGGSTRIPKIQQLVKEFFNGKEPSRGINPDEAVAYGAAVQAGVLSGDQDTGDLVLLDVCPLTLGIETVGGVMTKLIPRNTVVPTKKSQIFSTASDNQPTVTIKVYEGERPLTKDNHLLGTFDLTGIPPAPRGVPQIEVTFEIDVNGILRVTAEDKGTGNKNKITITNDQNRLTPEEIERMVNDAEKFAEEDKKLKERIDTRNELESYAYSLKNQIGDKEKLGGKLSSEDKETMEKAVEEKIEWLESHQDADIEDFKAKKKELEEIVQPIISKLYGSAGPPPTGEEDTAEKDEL

No constants are given. Whether binding was seen depends on the method and setting. Binding seen in cells or lysates may run through a third protein. Some entries that bind do so weakly or less than the wild type. For some of these results: Sequences can lack the tags named with a protein.

The target in test [1] is T1, Flag-tagged SHQ1 (human) (UniProt Q6PI26).
T1 sequence: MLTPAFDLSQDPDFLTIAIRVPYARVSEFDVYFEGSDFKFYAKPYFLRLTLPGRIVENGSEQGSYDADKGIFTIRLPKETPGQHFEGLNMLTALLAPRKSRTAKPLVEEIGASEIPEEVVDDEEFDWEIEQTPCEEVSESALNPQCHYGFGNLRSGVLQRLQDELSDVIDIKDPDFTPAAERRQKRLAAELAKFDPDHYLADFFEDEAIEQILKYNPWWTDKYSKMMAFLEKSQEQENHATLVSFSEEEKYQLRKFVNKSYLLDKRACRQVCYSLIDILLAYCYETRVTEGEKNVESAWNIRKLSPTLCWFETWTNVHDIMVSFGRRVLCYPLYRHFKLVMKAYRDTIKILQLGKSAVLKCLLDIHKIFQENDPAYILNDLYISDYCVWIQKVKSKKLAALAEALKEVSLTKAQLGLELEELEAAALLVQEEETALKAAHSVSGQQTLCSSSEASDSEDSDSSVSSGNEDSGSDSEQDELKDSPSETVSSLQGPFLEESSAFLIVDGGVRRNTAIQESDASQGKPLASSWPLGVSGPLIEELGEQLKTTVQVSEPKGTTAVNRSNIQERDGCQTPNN
The test is described as follows: co-IP; HepG2 cells transfected with Flag-SHQ1 alone or with HA-GRP78, 24 h; NP-40 lysis buffer (50 mM Tris-HCl pH 7.6, 120 mM NaCl, 1 mM EDTA, 1% NP40); anti-Flag or anti-HA antibody overnight, protein A/G beads; western blot.

The target of test [2] is HA-tagged GRP78 (UniProt P11021). The description is as above.
In test [3] the target is endogenous GRP78 (human (endogenous in HepG2)) (UniProt P11021). Briefly: co-IP; HepG2 lysate (also SHQ1-knockdown and control HepG2 cells); anti-GRP78 antibody used for immunoprecipitation; western blot of endogenous proteins. On the technique in general: A western blot detects proteins with antibodies after separation by electrophoresis.

Turning to “HA-tagged GRP78 (from UniProt P11021 19-654)”, the binding result in test [1] is “binds”. The same measure, in the same setting: in the case of “endogenous GRP78 (from UniProt P11021 19-654)” it was “binds”.

B1: Flag-tagged SHQ1 (protein, UniProt Q6PI26 1-577)
chain: MLTPAFDLSQDPDFLTIAIRVPYARVSEFDVYFEGSDFKFYAKPYFLRLTLPGRIVENGSEQGSYDADKGIFTIRLPKETPGQHFEGLNMLTALLAPRKSRTAKPLVEEIGASEIPEEVVDDEEFDWEIEQTPCEEVSESALNPQCHYGFGNLRSGVLQRLQDELSDVIDIKDPDFTPAAERRQKRLAAELAKFDPDHYLADFFEDEAIEQILKYNPWWTDKYSKMMAFLEKSQEQENHATLVSFSEEEKYQLRKFVNKSYLLDKRACRQVCYSLIDILLAYCYETRVTEGEKNVESAWNIRKLSPTLCWFETWTNVHDIMVSFGRRVLCYPLYRHFKLVMKAYRDTIKILQLGKSAVLKCLLDIHKIFQENDPAYILNDLYISDYCVWIQKVKSKKLAALAEALKEVSLTKAQLGLELEELEAAALLVQEEETALKAAHSVSGQQTLCSSSEASDSEDSDSSVSSGNEDSGSDSEQDELKDSPSETVSSLQGPFLEESSAFLIVDGGVRRNTAIQESDASQGKPLASSWPLGVSGPLIEELGEQLKTTVQVSEPKGTTAVNRSNIQERDGCQTPNN
Consider B1, for which the binding result in test [2] was “binds”.

B2: endogenous SHQ1 (protein, UniProt Q6PI26 1-577)
chain: MLTPAFDLSQDPDFLTIAIRVPYARVSEFDVYFEGSDFKFYAKPYFLRLTLPGRIVENGSEQGSYDADKGIFTIRLPKETPGQHFEGLNMLTALLAPRKSRTAKPLVEEIGASEIPEEVVDDEEFDWEIEQTPCEEVSESALNPQCHYGFGNLRSGVLQRLQDELSDVIDIKDPDFTPAAERRQKRLAAELAKFDPDHYLADFFEDEAIEQILKYNPWWTDKYSKMMAFLEKSQEQENHATLVSFSEEEKYQLRKFVNKSYLLDKRACRQVCYSLIDILLAYCYETRVTEGEKNVESAWNIRKLSPTLCWFETWTNVHDIMVSFGRRVLCYPLYRHFKLVMKAYRDTIKILQLGKSAVLKCLLDIHKIFQENDPAYILNDLYISDYCVWIQKVKSKKLAALAEALKEVSLTKAQLGLELEELEAAALLVQEEETALKAAHSVSGQQTLCSSSEASDSEDSDSSVSSGNEDSGSDSEQDELKDSPSETVSSLQGPFLEESSAFLIVDGGVRRNTAIQESDASQGKPLASSWPLGVSGPLIEELGEQLKTTVQVSEPKGTTAVNRSNIQERDGCQTPNN
Consider B2, for which the binding result in test [3] was “binds”.
